Laboratory results taken from patent US12110283B2, “Carbonic anhydrase targeting agents and methods of using same” (VisEn Medical, Inc., priority 2011, dated 2024).

Test system: HeLa tumor tissue sections
Assay: Distribution in tumor tissue by fluorescence microscopy
Format: in vivo, mice
Conditions: sections co-stained with anti CA IX antibody or pimonidazole; Hoechst 33342 for perfused tissue
Description: Tumor bearing mice injected with C5 were then injected intravenously with pimonidazole (80 mg/kg), a marker of hypoxic tissue, and Hoechst 33342 (25 mg/kg), which stains highly perfused tissue, one hour and five minutes before sacrifice, respectively (38). Tumors, kidneys and muscle tissues were collected and imaged by FRI. The tissues were then embedded, frozen in OCT (Optimal Cutting Temperature compound), and stored at −80° C. until they were sectioned for fluorescence microscopy and immunostaining. Sections of 8 μm thickness were prepared and air dried for 10 min. Sections were imaged for Hoechst (blue) in combination with C5 (red). After acquiring images, the sections were fixed in ice-cold acetone for 20 min and incubated in SuperBlock (37515, Thermo Scientific) for 30 min. The tissue sections were then stained with detection antibodies diluted with blocking solution for 1 hour; CA IX expression was detected with fluorescein-conjugated Anti-Human CA IX monoclonal antibody (FAB2188F, R&D System) diluted 1:10 and pimonidazole binding was detected by FITC-conjugated murine anti-pimonidazole monoclonal antibody (provided in the Hypoxyprobe plus kit) diluted 1:25 to a adjacent section. The sections were imaged again in blue (Hoechst) and green (pimonidazole and CA IX) fluorescence. […] Images were taken by Carl Zeiss Axiovert fluorescence microscope. […]

`CC1(C)C(/C=C/C(=C/C=C2/N(CCCS(=O)(=O)O)c3ccc4c(S(=O)(=O)O)cc(S(=O)(=O)O)cc4c3C2(C)C)c2ccc(C(=O)NCCC(=O)Nc3nnc(S(N)(=O)=O)s3)cn2)=[N+](CCCS(=O)(=O)[O-])c2ccc3c(S(=O)(=O)O)cc(S(=O)(=O)O)cc3c21` [Compound C5, 3-(2-((1E,3Z,5E)-5-(1,1-dimethyl-6,8-disulfo-3-(3-sulfopropyl)-1H-benzo[e]indol-2(3H)-ylidene)-3-(5-((3-oxo-3-((5-sulfamoyl-1,3,4-thiadiazol-2-yl)amino)propyl)carbamoyl)pyridin-2-yl)penta-1,3-dien-1-yl)-1,1-dimethyl-6,8-disulfo-1H-benzo[e]indol-3-ium-3-yl)propane-1-sulfonate] was tested, and the “tumor tissue distribution of fluorescence signal (FIG. 7)” value was “co-localizes with both CA IX antibody and the hypoxia marker pimonidazole and is located away from well perfused areas indicated by the Hoechst stain”.
